PubChem BioAssay AID493246 | Drosophila RNAi Screening Center – 2011
The deposit covers about 21,000 reagents; this is an unselected part of those with a known target gene and a result. In the full data, 429 (2%) were called active. 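Values are raw and not normalised between plates; calls rest on per-plate z-scores that were not deposited.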 Entries without a mark were called inactive. A plus sign joins genes that one reagent is predicted to hit. Not given: the amount of reagent, the time to read-out.

Purpose: 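Genes fly cells need to grow and stay alive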 (primary screen)
Cell system: Drosophila Kc and S2R+ cells
Knock-down reagent: long dsRNA against Drosophila genes
Read-out: 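Raw, unnormalised count of remaining cells in each well; per-plate z-scores of cell number underlie the calls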
Direction: Kc cell number and S2R+ cell number: higher = more cells remaining
Call rule: 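Counted as a hit if cell number falls by a z-score of at least 3 within its plate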

Gene | amplicon | Kc cell number, rep 1 | Kc cell number, rep 2 | S2R+ cell number, rep 1 | S2R+ cell number, rep 2
CG13056 | DRSC09937 | 1.38e6 | 1.52e6 | 1.15e6 | 1.34e6
Acbp3 (Acyl-CoA binding protein 3) | DRSC11022 | 1.57e6 | 1.39e6 | 1.06e6 | 1.18e6
T3dh + pgc | DRSC04659 | 1.28e6 | 1.36e6 | 1.02e6 | 1.03e6
CG7968 | DRSC01903 | 1.52e6 | 1.59e6 | 1.17e6 | 1.36e6
CG18180 | DRSC10304 | 1.41e6 | 1.42e6 | 1.43e6 | 1.34e6
hang (hangover) | DRSC19901 | 3.41e5 | – | 5.99e5 | –
hang (hangover) | DRSC19902 | 1.34e6 (active) | 1.38e6 | 6.82e5 | 7.55e5
ppk21 (pickpocket 21) | DRSC14466 | 1.41e6 | 1.40e6 | 9.78e5 | 1.06e6
Bgb | DRSC08148 | 1.38e6 | 1.41e6 | 1.16e6 | 1.20e6
bc10 | DRSC11326 | 1.32e6 | 1.28e6 | 1.16e6 | 1.24e6
CrzR (Corazonin receptor) | DRSC09781 | 1.66e6 | 1.55e6 | 1.46e6 | 1.47e6
CrzR (Corazonin receptor) | DRSC09782 | 1.63e6 | 1.69e6 | 1.48e6 | 1.49e6
CG34276 | DRSC15811 | 1.25e6 | 1.30e6 | 1.13e6 | 1.30e6
CG30323 | DRSC07656 | 1.47e6 | 1.55e6 | 1.20e6 | 1.31e6
RpL31 (Ribosomal protein L31) | DRSC06716 | 1.12e6 | 1.18e6 | 7.45e5 | 8.92e5
drpr (draper) | DRSC08143 | 1.41e6 | 1.39e6 | 1.11e6 | 1.34e6
drpr (draper) | DRSC08525 | 1.54e6 | 1.44e6 | 1.09e6 | 1.26e6
CG13833 | DRSC14683 | 1.59e6 | 1.67e6 | 9.84e5 | 1.06e6
Gpa2 (Glycoprotein hormone alpha 2) | DRSC21071 | 1.42e6 | 1.45e6 | 1.03e6 | 1.14e6
CG18135 | DRSC10295 | 1.88e6 | 1.76e6 | 1.35e6 | 1.44e6
Ork1 (Open rectifier K[+] channel 1) | DRSC20266 | 5.70e5 | – | 7.90e5 | –
CG31781 (retired record) | DRSC02431 | 1.54e6 | 1.68e6 | 1.39e6 | 1.46e6
CG31781 (retired record) | DRSC02432 | 1.81e6 | 1.80e6 | 1.42e6 | 1.52e6
ArgRS-m (Arginyl-tRNA synthetase, mitochondrial) | DRSC14186 | 1.39e6 | 1.47e6 | 1.02e6 | 1.22e6

In a second layout: 2 of the entries above
{"Gene": "CG18180", "amplicon": "DRSC10304", "Kc cell number, rep 1": 1.41e6, "Kc cell number, rep 2": 1.42e6, "S2R+ cell number, rep 1": 1.43e6, "S2R+ cell number, rep 2": 1.34e6}
{"Gene": "hang (hangover)", "amplicon": "DRSC19901", "Kc cell number, rep 1": 3.41e5, "S2R+ cell number, rep 1": 5.99e5}
